According to PubChem BioAssay AID248 (DTP/NCI, 2004):
The list is a part of this screen's results and no random one: it is rich in T/C values a quarter to a half above the control, in often repeated tests (any T/C) and in doses without a T/C. Other doses and runs of a compound stand elsewhere. T/C: endpoint of the treated group in % of that of the vehicle group. Some entries give survivors of the animals treated and no T/C: the source files T/C as zero there, which appears to mark a toxic dose or a test without result, not a measured value. Some survivor counts are full or nearly so, which does not show that the dose was tolerated: the source hardly ever lists a survival T/C far under the control, and the zero likely stands for such cases as well. Survivors were counted at the toxicity check, usually on the fifth day, unless a day is given; later deaths do not show. Schedules are NCI's codes, read here as Q, the interval in days (D) or hours (H), X, the number of doses. Some schedules carry Z or #; the key to these is not given. Some entries hold several experiments; their values stand side by side, smallest first. For survival time, this PubChem deposit counts one and a half times the control or more as active, and values a quarter to a half above the control carry no call in these data; other NCI protocols may use other cut-offs. Counts like (3×) give the number of equal values in this list. Some T/C values are followed by the survivors on the day toxicity was checked, most often the fifth; where none is given, no animal had died by that day.

Test system: L1210 leukemia ip in BDF1 mice, survival T/C
Assay: NCI In Vivo Anticancer Drug Screen. Data for tumor model L1210 Leukemia (intraperitoneal) in B6D2F1 (BDF1) mice
Settings: higher T/C = longer survival
[1] = T/C endpoint: mean survival time, dose: 50.0 mg/kg/injection, schedule: Q01DX009 (ip), vehicle: carboxymethylcellulose (CMC)
[2] = T/C endpoint: mean survival time, dose: 100.0 mg/kg/injection, schedule: Q01DX009 (ip), vehicle: carboxymethylcellulose (CMC)
[3] = T/C endpoint: mean survival time, dose: 200.0 mg/kg/injection, schedule: Q01DX009 (ip), vehicle: carboxymethylcellulose (CMC)
[4] = T/C endpoint: mean survival time, dose: 100.0 mg/kg/injection, schedule: Q04DX003 (ip), vehicle: Klucel (hydroxypropylcellulose) (HPC)
[5] = T/C endpoint: mean survival time, dose: 400.0 mg/kg/injection, schedule: Q01DX009 (ip), vehicle: Klucel (hydroxypropylcellulose) (HPC)
[6] = T/C endpoint: mean survival time, dose: 150.0 mg/kg/injection, schedule: Q01DX001 (ip), vehicle: saline
[7] = T/C endpoint: mean survival time, dose: 300.0 mg/kg/injection, schedule: Q01DX001 (ip), vehicle: saline
[8] = T/C endpoint: mean survival time, dose: 400.0 mg/kg/injection, schedule: Q04DX003 (ip), vehicle: Klucel (hydroxypropylcellulose) (HPC)
[9] = T/C endpoint: mean survival time, dose: 200.0 mg/kg/injection, schedule: Q01DX009 (ip), vehicle: saline
[10] = T/C endpoint: mean survival time, dose: 50.0 mg/kg/injection, schedule: Q01DX009 (ip), vehicle: Klucel (hydroxypropylcellulose) (HPC)
[11] = T/C endpoint: mean survival time, dose: 100.0 mg/kg/injection, schedule: Q01DX009 (ip), vehicle: Klucel (hydroxypropylcellulose) (HPC)
[12] = T/C endpoint: mean survival time, dose: 200.0 mg/kg/injection, schedule: Q01DX009 (ip), vehicle: Klucel (hydroxypropylcellulose) (HPC)
[13] = T/C endpoint: mean survival time, dose: 50.0 mg/kg/injection, schedule: Q01DX009 (ip), vehicle: saline with Tween-80

`CC(=O)Nc1ccc(OCCOC(=O)Nc2ccc(Cl)c(C(F)(F)F)c2)cc1` was tested, and the T/C [1] was 89, 95, 101 % of control, the survivor count [1] was 3 of 3 and the T/C [2] was 93 and 94 % of control. For the same molecule, the survivor count [2] was 6 of 6, the T/C (T/C endpoint: mean survival time, dose: 100.0 mg/kg/injection, schedule: Q04DX002 (ip), vehicle: carboxymethylcellulose (CMC)) was 93, 94 (2×), 95 % of control and the T/C [3] was 86, 87, 90 % of control. For the same molecule, the survivor count [3] was 6 of 6.
For `CC1(O)OOC(=O)C1(C)C` (stereo not drawn), the survivor count (T/C endpoint: mean survival time, dose: 100.0 mg/kg/injection, schedule: Q01DX001 (ip), vehicle: saline with Tween-80) was 0 of 6, the survivor count (T/C endpoint: mean survival time, dose: 200.0 mg/kg/injection, schedule: Q01DX001 (ip), vehicle: saline with Tween-80) was 0 of 6 and the survivor count (T/C endpoint: mean survival time, dose: 400.0 mg/kg/injection, schedule: Q01DX001 (ip), vehicle: saline with Tween-80) was 0 of 6.
In the case of `O=C1c2ccccc2C(=O)N1c1c[nH]c(=O)[nH]c1=O`, the survivor count [4] is reported as 2 of 6.
In the case of `O=C(Nc1ccc(C(=O)O)cc1)Oc1ccc(N(CCCl)CCCl)cc1`, the T/C (T/C endpoint: mean survival time, dose: 24.0 mg/kg/injection, schedule: Q01DX009 (ip), vehicle: other) is reported as 130 % of control, the T/C (T/C endpoint: mean survival time, dose: 24.0 mg/kg/injection, schedule: Q01DX009 (ip), vehicle: saline) is reported as 141 % of control and the T/C (T/C endpoint: mean survival time, dose: 48.0 mg/kg/injection, schedule: Q01DX009 (ip), vehicle: saline) is reported as 129 % of control. The T/C (T/C endpoint: mean survival time, dose: 150.0 mg/kg/injection, schedule: Q01DX001 (ip), vehicle: carboxymethylcellulose (CMC)) was 142 % of control, the T/C (T/C endpoint: mean survival time, dose: 150.0 mg/kg/injection, schedule: Q01DX001 (ip), vehicle: other) was 130 % of control and the survivor count (T/C endpoint: mean survival time, dose: 192.0 mg/kg/injection, schedule: Q01DX009 (ip), vehicle: other) was 3 of 6. For the same molecule, the survivor count (T/C endpoint: mean survival time, dose: 192.0 mg/kg/injection, schedule: Q01DX009 (ip), vehicle: saline) was 2 of 6 and the survivor count (T/C endpoint: mean survival time, dose: 300.0 mg/kg/injection, schedule: Q01DX001 (ip), vehicle: carboxymethylcellulose (CMC)) was 6 of 6.
With `O=C(Nc1ccc2ncccc2c1)Nc1ccc2ncccc2c1` the survivor count [4] was 6 of 6.
In the case of `COc1ccc(OC)c(NC(=O)CS)c1`, the survivor count (T/C endpoint: mean survival time, dose: 400.0 mg/kg/injection, schedule: Q04DX003 (ip), vehicle: saline with Tween-80) is reported as 4 of 6.
`CNC(=S)N/N=C/c1ccc(N(C)CCC#N)cc1` was tested, and the survivor count [5] was 0 of 6.
For `CN1C(OO)CCOP1(=O)N(CCCl)CCCl` (stereo not drawn), the survivor count (T/C endpoint: mean survival time, dose: 300.0 mg/kg/injection, schedule: Q01DX001 (ip), vehicle: DMSO) was 0 of 6.
With `CC[N+](C)(CC)CCCNC(c1ccc(OC)cc1)C(Cl)(Cl)Cl` (stereo not drawn) the survivor count (T/C endpoint: mean survival time, dose: 75.0 mg/kg/injection, schedule: Q01DX001 (ip), vehicle: saline) was 1 of 6, the survivor count [6] was 0 of 6 and the survivor count [7] was 0 of 6.
With `O=[N+]([O-])c1c(Cl)ccc2nsnc12` the survivor count (T/C endpoint: mean survival time, dose: 50.0 mg/kg/injection, schedule: Q04DX003 (ip), vehicle: Klucel (hydroxypropylcellulose) (HPC)) was 6 of 6, the survivor count [4] was 3 of 6 and the survivor count (T/C endpoint: mean survival time, dose: 200.0 mg/kg/injection, schedule: Q04DX003 (ip), vehicle: Klucel (hydroxypropylcellulose) (HPC)) was 2 of 6. For the same molecule, the survivor count [8] was 0 of 6.
For `Cc1ccc(S(=O)(=O)OCC(O)C2OCOC3COCOC32)cc1` (stereo not drawn), the T/C (T/C endpoint: mean survival time, dose: 400.0 mg/kg/injection, schedule: Q01DX001 (ip), vehicle: Klucel (hydroxypropylcellulose) (HPC)) was 126 % of control.
For `CCOC(=O)C(NC(=O)C(Cc1ccc(N(CCCl)CCCl)cc1)NC(C)=O)C(C)C` (stereo not drawn), the T/C (T/C endpoint: mean survival time, dose: 60.0 mg/kg/injection, schedule: Q01DX009 (ip), vehicle: alcohol) was 130 % of control, the survivor count (T/C endpoint: mean survival time, dose: 178.0 mg/kg/injection, schedule: Q01DX009 (ip), vehicle: alcohol) was 2 of 6 and the survivor count (T/C endpoint: mean survival time, dose: 178.0 mg/kg/injection, schedule: Q01DX009 (ip), vehicle: other) was 0 of 6. The T/C [9] was 134 % of control, the survivor count (T/C endpoint: mean survival time, dose: 267.0 mg/kg/injection, schedule: Q01DX009 (ip), vehicle: other) was 1 of 6 and the survivor count (T/C endpoint: mean survival time, dose: 400.0 mg/kg/injection, schedule: Q01DX009 (ip), vehicle: other) was 0 of 6. For the same molecule, the survivor count (T/C endpoint: mean survival time, dose: 600.0 mg/kg/injection, schedule: Q01DX009 (ip), vehicle: other) was 0 of 6.
For `Nc1ccccc1-c1ccccc1`, the survivor count [6] was 1 of 6 and the survivor count [7] was 0 of 6.
In the case of `CC1(C)CC(=O)c2c(cc(OS(C)(=O)=O)cc2OS(C)(=O)=O)O1`, the survivor count (T/C endpoint: mean survival time, dose: 25.0 mg/kg/injection, schedule: Q01DX009 (ip), vehicle: Klucel (hydroxypropylcellulose) (HPC)) is reported as 1 of 3, the survivor count [10] is reported as 0 of 3 and 2 of 3 and the survivor count [11] is reported as 0 of 3. The survivor count [12] was 0 of 3.
With `O=C(O)c1cccc2c1-c1ccccc1C(Br)C2Br` (stereo not drawn) the survivor count (T/C endpoint: mean survival time, dose: 100.0 mg/kg/injection, schedule: Q04DX002 (ip), vehicle: saline with Tween-80) was 3 of 3 and the survivor count (T/C endpoint: mean survival time, dose: 400.0 mg/kg/injection, schedule: Q04DX002 (ip), vehicle: saline with Tween-80) was 2 of 3.
With `CC1(C)C2CCC1(CS(=O)(=O)O)C(=O)C2.[Ag]` (stereo not drawn) the survivor count (T/C endpoint: mean survival time, dose: 25.0 mg/kg/injection, schedule: Q01DX009 (ip), vehicle: saline with Tween-80) was 4 of 6, the survivor count [13] was 1 of 6 and the survivor count (T/C endpoint: mean survival time, dose: 100.0 mg/kg/injection, schedule: Q01DX009 (ip), vehicle: saline with Tween-80) was 0 of 6.
With `NC(=O)C1(N2CCCC2)CCN(Cc2ccccc2)CC1` the survivor count [8] was 1 of 6.
`CCOc1ccc(NC(=O)NCBr)cc1` was tested, and the survivor count [13] was 3 of 3 and the survivor count (T/C endpoint: mean survival time, dose: 200.0 mg/kg/injection, schedule: Q01DX009 (ip), vehicle: saline with Tween-80) was 3 of 3.
With `COC(=O)Nc1cccc(-c2nc3ccc(NC(=O)OC)cc3c(=O)n2-c2ccccc2)c1` the T/C [10] was 137 % of control, the T/C [11] was 136 % of control and the survivor count [11] was 6 of 6. For the same molecule, the survivor count (T/C endpoint: mean survival time, dose: 100.0 mg/kg/injection, schedule: Q01DX009 (ip), vehicle: other) was 0 of 7, the survivor count [12] was 0 of 6 and 5 of 6 and the T/C (T/C endpoint: median survival time, dose: 50.0 mg/kg/injection, schedule: Q04DX003 (ip), vehicle: saline) was 140 % of control. For the same molecule, the T/C (T/C endpoint: median survival time, dose: 100.0 mg/kg/injection, schedule: Q04DX003 (ip), vehicle: Klucel (hydroxypropylcellulose) (HPC)) was 140 % of control, the T/C (T/C endpoint: median survival time, dose: 100.0 mg/kg/injection, schedule: Q04DX003 (ip), vehicle: saline with Tween-80) was 142 % of control and the survivor count (T/C endpoint: median survival time, dose: 150.0 mg/kg/injection, schedule: Q04DX003 (ip), vehicle: saline) was 5 of 7. For the same molecule, the survivor count (T/C endpoint: median survival time, dose: 200.0 mg/kg/injection, schedule: Q04DX003 (ip), vehicle: saline) was 4 of 7, the survivor count (T/C endpoint: median survival time, dose: 400.0 mg/kg/injection, schedule: Q04DX003 (ip), vehicle: other) was 2 of 6 and the T/C (T/C endpoint: median survival time, dose: 500.0 mg/kg/injection, schedule: Q04DX003 (oral), vehicle: saline) was 129 % of control.
For `Cc1ccc(Cl)cc1NC(=O)Oc1cc(C)c(Cl)c(C)c1`, the survivor count [5] was 2 of 6.
For `CCOC(=O)C1CC(C(=O)OCC)c2nc3ccccc3nc21` (stereo not drawn), the survivor count (T/C endpoint: mean survival time, dose: 200.0 mg/kg/injection, schedule: Q01DX001 (ip), vehicle: other) was 6 of 6.
`CCCCC(/C=N/N=C(N)N)=N\N=C(N)N` was tested, and the survivor count (T/C endpoint: mean survival time, dose: 60.0 mg/kg/injection, schedule: Q01DX Z (ip), vehicle: saline) was 4 of 6 and the survivor count (T/C endpoint: mean survival time, dose: 120.0 mg/kg/injection, schedule: Q01DX Z (ip), vehicle: saline) was 0 of 6.
With `CCOC(=O)CCC(NC(=O)N(CCCl)CCCl)C(=O)OCC` (stereo not drawn) the T/C (T/C endpoint: mean survival time, dose: 62.5 mg/kg/injection, schedule: Q01DX Z (ip), vehicle: water) was 137 % of control, the T/C (T/C endpoint: mean survival time, dose: 100.0 mg/kg/injection, schedule: Q01DX009 (ip), vehicle: saline) was 125 % of control [5 of 6 alive] and the T/C (T/C endpoint: mean survival time, dose: 125.0 mg/kg/injection, schedule: Q01DX Z (ip), vehicle: water) was 144 % of control. The T/C [9] was 133 % of control.
In the case of `OC(CCl)C(O)C(O)C(O)CCl` (stereo not drawn), the T/C (T/C endpoint: mean survival time, dose: 100.0 mg/kg/injection, schedule: Q01DX001 (ip), vehicle: saline) is reported as 132 % of control.
